Assay results: the supplement of paper PMC4635364
Counter-ions that a name gives are not always drawn. This is one part of the list. Single values are uncertain here, since repeats match poorly.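 Cells: ReNCell VM human fetal ventral-midbrain neural progenitors, differentiated mitogen-free. Blinded raters compared doublecortin-stained (early neurons) or tyrosine hydroxylase-stained (dopaminergic neurons) images with untreated wells, where 0 means no change. After repeats and both raters were averaged, compounds scoring 2 or above became hits for retesting.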

Each molecule was assayed on ReNCell VM (assay: neuronal differentiation score (DCX+ cell fraction vs untreated, manual image score) (score (-3 to 3)); higher = more neuronal differentiation). Conditions: library: Spectrum; 2 uM; 2 weeks.

Neuronal differentiation score, inactive:
NS(=O)(=O)c1cc(C2(O)NC(=O)c3ccccc32)ccc1Cl (stereo not given) 0
CC(C)C1=CC2=CC[C@@H]3[C@](C)(CCC[C@@]3(C)C(=O)O)[C@H]2CC1 0
O=C(/C=C/c1ccc(O)c(O)c1)OCCc1ccccc1 0
C[C@]12CC[C@@H]3c4ccc(OS(=O)(=O)O)cc4CC[C@H]3[C@@H]1CCC2=O 0
CC1=C(/C=C/C(C)=C/C=C/C(C)=C/C=C/C=C(C)/C=C/C=C(C)/C=C/C2=C(C)CCCC2(C)C)C(C)(C)CCC1 [beta-CAROTENE] 1
CCCNCC(O)COc1ccccc1C(=O)CCc1ccccc1 (stereo not given) 0
Cc1cc(NC(=O)C2=C(O)c3ccccc3S(=O)(=O)N2C)no1 0
Nc1ccc(S(=O)(=O)c2ccc(N)cc2)cc1 0
CSCC[C@H](NC(=O)[C@H](Cc1c[nH]c2ccccc12)NC(=O)CCNC(=O)OC(C)(C)C)C(=O)N[C@@H](CC(=O)O)C(=O)N[C@@H](Cc1ccccc1)C(N)=O 0
CC(=O)Oc1cccc(C(=O)O)c1OC(C)=O 0
CCCc1nc2c(C)cc(-c3nc4ccccc4n3C)cc2n1Cc1ccc(-c2ccccc2C(=O)O)cc1 0
CC1(C)[C@@H](OC(=O)CCC(=O)O)CC[C@]2(C)[C@H]3C(=O)C=C4[C@@H]5C[C@@](C)(C(=O)O)CC[C@]5(C)CC[C@@]4(C)[C@]3(C)CC[C@@H]12 0
CCN[C@H]1CN(CCCOC)S(=O)(=O)c2sc(S(N)(=O)=O)cc21 0
CN(C)CCOC(=O)C(c1ccccc1)C1(O)CCCC1 (stereo not given) 0
COc1ccc([C@@H]2Sc3ccccc3N(CCN(C)C)C(=O)[C@@H]2OC(C)=O)cc1 0
C[C@]12CCC(=O)C=C1CC[C@@H]1[C@@H]2[C@@H](O)C[C@@]2(C)[C@H]1CC[C@]2(O)C(=O)COP(=O)(O)O 0
NC(=O)C1(N2CCCCC2)CCN(CCCC(=O)c2ccc(F)cc2)CC1 0
COc1cc2oc3cc(OC)c(OC)c(CC=C(C)C)c3c(=O)c2c(O)c1CC=C(C)C 0

Same assay, conditions: library: Tocriscreen; 2 uM; 2 weeks

Neuronal differentiation score, inactive:
Fc1ccc(-c2nc3n(c2-c2ccncc2)CCS3)cc1 1
NCCNC(=O)c1ccc(Cl)cn1 [Lazabemide hydrochloride] 0
c1ccc(COCCCc2c[nH]cn2)cc1 [Proxyfan Oxalate] 0
CC(Oc1ccc(O)cc1)(P(=O)(O)O)P(=O)(O)O 0
CC(C)c1ccc2c(c1)CC[C@H]1[C@](C)(CN)CCC[C@]21C [Lylamine hydrochloride] 0
CCn1c(=O)n(C2=C(CO)CN(CC3CCCCCCC3)CC2)c2ccccc21 1
C[C@H](NC[C@H](O)CP(=O)(O)Cc1ccccc1)c1ccc(Cl)c(Cl)c1 0

These molecules were tested on ReNCell VM (assay: dopaminergic neuron differentiation score (TH+ cell fraction vs untreated, manual image score) (score (0 to 3)); higher = more TH+ dopaminergic neuron differentiation). Conditions: library: LOPAC; 2 uM; 4 weeks; BDNF 10 ng/ml + GDNF 10 ng/ml.

Dopaminergic neuron differentiation score, inactive:
CC(N)=NCCCC[C@H](N)C(=O)O [L-N6-(1-Iminoethyl)lysine hydrochloride] 0
Nc1nc2[nH]c(=O)cnc2c(=O)[nH]1 [Isoxanthopterin] 0
CN[C@H](CC(C)C)C(=O)N[C@H]1C(=O)N[C@@H](CC(N)=O)C(=O)N[C@H]2C(=O)N[C@H]3C(=O)N[C@H](C(=O)N[C@H](C(=O)O)c4cc(O)cc(O)c4-c4cc3ccc4O)[C@H](O)c3ccc(c(Cl)c3)Oc3cc2cc(c3O[C@@H]2O[C@H](CO)[C@@H](O)[C@H](O)[C@H]2O[C@H]2C[C@](C)(N)[C@H](O)[C@H](C)O2)Oc2ccc(cc2Cl)[C@H]1O [Vancomycin hydrochloride from Streptomyces orientalis] 0
Nc1nc2ccc(OC(F)(F)F)cc2s1 [Riluzole] 0
N[C@@H]1CONC1=O [D-Cycloserine] 0
CCCCOC(=O)NS(=O)(=O)c1sc(CC(C)C)cc1-c1ccc(Cn2c(CC)nc3c(C)cc(C)nc32)cc1 0
NC(N)=NCc1cccc(I)c1 [m-Iodobenzylguanidine hemisulfate] 0
CC(C)NC[C@@H](O)COc1ccc(CC(N)=O)cc1 [R(+)-Atenolol] 1
CNC[C@H](O)c1cccc(O)c1 [Phenylephrine hydrochloride] 0

Copied from the entries so far for reference:
Dopaminergic neuron differentiation score, inactive:
Nc1nc2ccc(OC(F)(F)F)cc2s1 [Riluzole] 0
N[C@@H]1CONC1=O [D-Cycloserine] 0
CCCCOC(=O)NS(=O)(=O)c1sc(CC(C)C)cc1-c1ccc(Cn2c(CC)nc3c(C)cc(C)nc32)cc1 0

Same assay, conditions: library: Prestwick; 2 uM; 4 weeks; BDNF 10 ng/ml + GDNF 10 ng/ml

Dopaminergic neuron differentiation score, inactive:
CCCN[C@H]1CCc2nc(N)sc2C1 [Pramipexole] 0
Nc1ccc(/N=N/c2ccccc2)c(N)n1 [Phenazopyridine hydrochloride] 1
CCN1CCN(C(=O)N[C@@H](C(=O)N[C@@H]2C(=O)N3C(C(=O)O)=C(CSc4nnnn4C)CS[C@H]23)c2ccc(O)cc2)C(=O)C1=O [Cefoperazone dihydrate] 0
CC(C)NC[C@H](O)COc1ccc(CC(N)=O)cc1 [(S)-(-)-Atenolol] 0
CC(=O)Oc1cccc2c1C(=O)c1c(OC(C)=O)cc(C(=O)O)cc1C2=O [Diacerein] 0
CN1[C@@H]2CC[C@H]1C[C@@H](OC(=O)c1c[nH]c3ccccc13)C2 [Tropisetron HCl] 0
